Experimental data published in article PMC7575815.
Results are given in words; binding and its absence hold for the method and conditions named. For some of these results: In cells and extracts the contact can be indirect. Some entries that bind do so weakly or less than the wild type.

Protein sequences, listed by entry. Tags and fused reporters are not part of them. Lines headed by an entry give the natural chain unless they say otherwise; changes in a name come on top. Residues count along the entry.
UniProt P03372: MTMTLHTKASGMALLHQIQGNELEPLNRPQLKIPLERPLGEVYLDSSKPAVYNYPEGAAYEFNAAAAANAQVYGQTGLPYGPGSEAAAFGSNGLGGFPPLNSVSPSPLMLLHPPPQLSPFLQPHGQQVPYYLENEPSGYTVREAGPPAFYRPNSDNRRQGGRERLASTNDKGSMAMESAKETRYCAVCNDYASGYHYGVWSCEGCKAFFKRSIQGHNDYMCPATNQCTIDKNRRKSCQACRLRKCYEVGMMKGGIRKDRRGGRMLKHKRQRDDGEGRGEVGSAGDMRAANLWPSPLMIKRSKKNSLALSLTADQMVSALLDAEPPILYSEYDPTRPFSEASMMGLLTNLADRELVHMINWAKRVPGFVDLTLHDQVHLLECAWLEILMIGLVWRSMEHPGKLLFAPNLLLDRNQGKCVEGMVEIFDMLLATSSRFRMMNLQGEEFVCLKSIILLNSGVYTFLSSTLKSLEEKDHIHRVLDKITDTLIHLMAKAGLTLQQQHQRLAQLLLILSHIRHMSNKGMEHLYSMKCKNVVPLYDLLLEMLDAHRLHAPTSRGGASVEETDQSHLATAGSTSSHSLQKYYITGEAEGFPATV
AF-1 domain (amino acids 1–180) of estrogen receptor α: residues 1-180 of P03372
UniProt O14980: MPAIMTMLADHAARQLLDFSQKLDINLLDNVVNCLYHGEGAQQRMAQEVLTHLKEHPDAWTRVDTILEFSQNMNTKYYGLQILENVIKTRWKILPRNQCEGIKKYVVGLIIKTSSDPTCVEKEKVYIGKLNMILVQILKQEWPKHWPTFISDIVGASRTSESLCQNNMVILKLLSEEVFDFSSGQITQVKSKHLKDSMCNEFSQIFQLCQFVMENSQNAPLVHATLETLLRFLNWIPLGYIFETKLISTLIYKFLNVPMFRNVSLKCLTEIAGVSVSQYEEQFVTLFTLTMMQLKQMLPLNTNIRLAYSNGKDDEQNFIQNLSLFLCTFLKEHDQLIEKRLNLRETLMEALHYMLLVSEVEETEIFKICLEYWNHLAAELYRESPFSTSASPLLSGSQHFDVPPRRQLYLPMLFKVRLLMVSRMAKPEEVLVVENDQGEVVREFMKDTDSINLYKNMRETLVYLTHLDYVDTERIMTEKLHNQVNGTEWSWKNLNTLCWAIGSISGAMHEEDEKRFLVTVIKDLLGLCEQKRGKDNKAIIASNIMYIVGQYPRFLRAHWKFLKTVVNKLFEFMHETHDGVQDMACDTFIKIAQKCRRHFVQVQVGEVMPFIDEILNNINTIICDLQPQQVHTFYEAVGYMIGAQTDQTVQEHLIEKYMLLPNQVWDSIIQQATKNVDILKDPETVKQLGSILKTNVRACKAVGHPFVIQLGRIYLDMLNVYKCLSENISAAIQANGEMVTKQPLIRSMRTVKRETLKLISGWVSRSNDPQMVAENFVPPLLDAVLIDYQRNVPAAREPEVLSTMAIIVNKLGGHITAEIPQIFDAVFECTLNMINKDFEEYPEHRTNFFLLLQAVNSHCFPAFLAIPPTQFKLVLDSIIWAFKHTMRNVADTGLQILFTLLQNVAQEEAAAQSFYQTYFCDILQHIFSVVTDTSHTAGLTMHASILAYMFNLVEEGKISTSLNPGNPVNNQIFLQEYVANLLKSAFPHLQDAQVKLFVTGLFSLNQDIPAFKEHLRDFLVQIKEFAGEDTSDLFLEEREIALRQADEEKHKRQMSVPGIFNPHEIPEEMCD

How the values were obtained:
[1] = biological target: estrogen receptor alpha (ERα), endogenous (human (endogenous in MCF-7, T47D, ZR-75-1)) (UniProt P03372); assay: co-IP; nuclear protein extracts of control MCF-7 and MCF7-ISG12 (stably overexpressing ISG12) cells grown in hormone-free or E2 medium; IP with anti-CRM1 or anti-ERα, Western blot with anti-ERα or anti-CRM1, densitometry
[2] = biological target: nuclear exportin protein chromosomal maintenance 1 (CRM1/XPO1), endogenous (human (endogenous in MCF-7)) (UniProt O14980); assay: as above
[3] = biological target: AF-1 domain (amino acids 1–180) of estrogen receptor α (UniProt P03372); assay: two-hybrid; Matchmaker two-hybrid screen in Y190 yeast; bait ERα AF-1 (1-180) in pAS2.1, human mammary gland cDNA library in pACT2; SD/-Leu -Trp -His with 25 mM 3-AT, 30°C, then β-galactosidase activity
[4] = biological target: estrogen receptor alpha (ERα), endogenous (human (endogenous in MCF-7, T47D, ZR-75-1)) (UniProt P03372); assay: proximity ligation; Duolink PLA on fixed MCF-7, T47-D and ZR-75-1 cells stimulated with E2 for 1 h; mouse anti-ERα (D12) and rabbit anti-ISG12 antibodies; endogenous proteins

## nuclear exportin protein chromosomal maintenance 1 (CRM1/XPO1), endogenous (from UniProt O14980 1-1071)
[1]
  binding: binds

## estrogen receptor alpha (ERα), endogenous (from UniProt P03372 1-595)
[2]
  binding: binds

B1: interferon alpha inducible protein 27 (IFI27/ISG12), clone from a human mammary gland cDNA library (protein, UniProt P40305-2 1-122)
chain: MEASALTSSAVTSVAKVVRVASGSAVVLPLARIATVVIGGVVAMAAVPMVLSAMGFTAAGIASSSIAAKMMSAAAIANGGGVASGSLVATLQSLGATGLSGLTKFILGSIGSAIAAVIARFY
[3]
  binding: binds

B2: interferon alpha inducible protein 27 (IFI27/ISG12), endogenous (protein, UniProt P40305-2 34-122)
chain: ATVVIGGVVAMAAVPMVLSAMGFTAAGIASSSIAAKMMSAAAIANGGGVASGSLVATLQSLGATGLSGLTKFILGSIGSAIAAVIARFY
[4]
  binding: binds
